Experimental data published in PubChem BioAssay AID540276 (National Center for Advancing Translational Sciences (NCATS), 2011).
The whole screen tested about 300,000 compounds, of which about 5,400 (1.8%) were called active. The inconclusive results got no clear call from the source; some entries with a clear call stand among them for comparison. Calls come from the whole dose curve; tested in HEK293 cells. Where the call is inconclusive, the potency comes from a doubtful curve fit.

Experiment: qHTS for inhibitors of binding or entry into cells for Marburg Virus
Conditions: Marburg virus pseudotyped entry inhibition, cell reporter; activity change, negative = inhibition: at 37.8 µM (top of the series) unless noted
% is set by controls: 0 for no effect and ±100 for the full control effect; potency is the fitted concentration of half-maximal effect.

Structure (SMILES) | Potency | activity change, negative = inhibition
O=C(Nc1ccc2oc(=O)ccc2c1)c1cc2ccccc2o1 | inconclusive: 0.891 µM [activator, partial curve, poor fit] | –
COC(=O)c1ccc(NC(=O)COc2ccc(N(C)S(=O)(=O)c3ccc(C)cc3)cc2)cc1 | inactive | –
COc1ccc(-n2ncc(S(=O)(=O)c3ccccc3)c2-c2ccc(Cl)cc2)cc1 | inconclusive: 23.1 µM [inhibitor, single point] | –
CC(C)c1ccc(C(O)Cc2nc3ccccc3n2C)cc1 (stereo unspecified) | – | inconclusive: 27.4% [activator] [at 46.1 µM]
COc1ccc(S(=O)(=O)CCC(=O)NCCc2ccc(S(N)(=O)=O)cc2)cc1 | inactive | –
c1ccc(CSc2nnc(-c3ccccn3)n2-c2ccccc2)cc1 | inactive | –
O=C1CCC(/C=C/c2ccccc2)=NN1 | inactive | –
COc1ccc(Nc2nc(-c3ccccc3)nc3ccccc23)c(OC)c1 | inconclusive: 11.2 µM [inhibitor, partial curve, poor fit] | –
O=C(Nc1ccc(C(=O)N2CCN(c3ccc(Cl)cc3)CC2)cc1)C1=CSCCO1 | inconclusive: 1.41 µM [inhibitor, single point] | –
CN(C)S(=O)(=O)c1ccc(C(=O)NCCN2C(=O)S/C(=C\c3cccnc3)C2=O)cc1 | inactive | –
O=C(CSc1nnc(CNC(=O)C23CC4CC(CC(C4)C2)C3)n1-c1ccc(F)cc1)Nc1ccc(F)cc1 | inconclusive: 5.62 µM [inhibitor, partial curve, poor fit] | –
O=c1nc(N/N=C/c2c[nH]c3ccccc23)cn[nH]1 | active: 8.91 µM | –
Cc1ccc(C(C)c2c(C)c([N+](=O)[O-])cc(C)c2[N+](=O)[O-])cn1 (stereo unspecified) | inconclusive: 17.8 µM [inhibitor, single point] | –
COc1ccc(NC(=O)CC2C(=O)N(c3ccccc3)C(=O)N2CCC2=CCCCC2)cc1 (stereo unspecified) | inconclusive: 7.94 µM [inhibitor, single point] | –
CC1SCC(NC(=O)c2ccc(Cl)cc2)CS1 (stereo unspecified) | inactive | –
Cc1ccc(C(=O)NC(=S)Nc2ccccc2C(F)(F)F)cc1 | inactive | –
CCOc1ccccc1Nc1ncnc2ccc(Br)cc12 | inconclusive: 20 µM [inhibitor, single point] | –
O=C1CC(c2ccccc2)CC(O)=C1C=Nc1ccccc1 (stereo unspecified) | inactive | –
C=CCn1c(SCc2c(C)noc2C)nc2ccccc2c1=O | inconclusive: 0.326 µM [inhibitor, partial curve, poor fit] | –
O=C1CC(N2CCOCC2)C(=O)N1c1cccc(Cl)c1 (stereo unspecified) | inactive | –
Cc1ccc(Cn2nnc3c(=O)[nH]c(C4CCN(C(=O)c5cccs5)CC4)nc32)cc1 | inconclusive: 23.1 µM [inhibitor, single point] | –
Cc1ccc2c(c1)c(=O)c(C(=O)c1ccccc1)cn2Cc1ccccc1F | inactive | –
COc1ccc(C)cc1S(=O)(=O)N1CCN(c2ccccc2)CC1 | inconclusive: 0.562 µM [inhibitor, full curve, poor fit] | –
CC(=O)NC(O)C(=O)c1ccccc1 (stereo unspecified) | inactive | –

Structure (SMILES) | Potency | activity change, negative = inhibition
COc1ccc(Nc2c3c(nc4ccccc24)CCC3)c(OC)c1 | inconclusive: 15.8 µM [inhibitor, partial curve, poor fit] | –
COc1ccc(NC(=O)C2CCCN(C(=O)c3cnn(-c4ccccc4)c3-n3cccc3)C2)cc1 (stereo unspecified) | inconclusive: 35.5 µM [inhibitor, partial curve, poor fit] | –
O=C(Nc1ccccc1)c1cccc(C(F)(F)F)c1 | inconclusive: 17.8 µM [activator, single point] | –
Cc1cc(/C=C(\C#N)C(=O)NC2CCCCCC2)c(C)n1C | inconclusive: 4.47 µM [activator, single point] | –
CCN1CCN(S(=O)(=O)c2ccc(Cl)c(C(=O)N(C)Cc3ccc(Cl)cc3Cl)c2)CC1 | inconclusive: 35.5 µM [inhibitor, single point] | –
Clc1ccc(Cl)c(-c2nc(-c3ccncc3)no2)c1 | inactive | –
Cc1csc(SCCN2C(=O)c3ccccc3C2=O)n1 | inconclusive: 11.6 µM [activator, partial curve] | –
CCOc1ccc2c(c1)c(N=Nc1cccc(C(=O)O)c1)c(O)n2C | inconclusive: 6.31 µM [activator, single point] | –
Cc1ccc2c(=O)cc(C(=O)N(Cc3ccccc3Cl)C3CCS(=O)(=O)C3)oc2c1 (stereo unspecified) | inconclusive: 3.55 µM [activator, partial curve, poor fit] | –
COc1ccc(N=Cc2cc3c(cc2O)OC(N)=C(C#N)C3c2ccccc2)cc1 (stereo unspecified) | inconclusive: 35.5 µM [inhibitor, single point] | –
CC(=O)c1c(Nc2ccccc2)sc(C(=O)c2ccccc2)c1C | inconclusive: 7.31 µM [inhibitor, partial curve, poor fit] | –
CCOC(=O)C(NC(=O)Nc1cccc(C)n1)(OCC(F)(F)F)C(F)(F)F (stereo unspecified) | inactive | –
CSc1ccccc1NC(=O)CSCc1ccc(C)cc1 | inconclusive: 35.5 µM [inhibitor, single point] | –
Cc1cc(CN(C)Cc2c(C(=O)N3CCCCCCC3)nc3ccc(Cl)cn23)n[nH]1 | inconclusive: 11.2 µM [activator, partial curve] | –
O=C(Cc1c[nH]c2ccccc12)NNC(=O)c1ccccc1 | inactive | –
COc1ccc(C2CC(c3cccs3)=NN2C(=O)CCl)cc1OC (stereo unspecified) | inconclusive: 2.24 µM [inhibitor, partial curve, poor fit] | –
O=C(O)Cn1c(SCc2ccccc2)nc2ccccc21 | inconclusive: 17.8 µM [activator, partial curve, poor fit] | –
COc1ccc(/C=N/O)cc1COc1ccc(NC(C)=O)cc1 | inconclusive: 0.184 µM [activator, full curve, poor fit] | –
CCOc1ccccc1CN1CCCC(C(=O)c2cc(F)ccc2F)C1 (stereo unspecified) | inconclusive: 8.91 µM [inhibitor, partial curve, poor fit] | –
COc1cc(/C=N/Nc2nc3ccccc3[nH]2)cc(Br)c1OCC(=O)N(C)C | inactive | –
CCCN1C2CCCC1CC(NC(=O)c1cccc(OC)c1)C2 (stereo unspecified) | inconclusive: 3.16 µM [inhibitor, single point] | –
Cc1ccc(C(C)C)c(OC(=O)/C=C/c2ccccc2)c1 | inconclusive: 25.9 µM [inhibitor, single point] | –
COc1ccccc1N1CCN(CCCNC(=O)c2nnc(Cc3c(F)cccc3Cl)o2)CC1 | inactive | –
COc1ccccc1C(=O)Nc1cccnc1 | inactive | –

Structure (SMILES) | Potency | activity change, negative = inhibition
O=C(Nc1ccc(Br)cc1)N1CCc2ccccc2C1 | inconclusive: 5.62 µM [activator, single point] | –
COc1ccc(NS(=O)(=O)c2cccc(NC(=O)COc3ccccc3[N+](=O)[O-])c2)cc1 | inconclusive: 1.26 µM [inhibitor, full curve, poor fit] | –
Cc1ccc(-n2cc3c(c2-c2ccccc2Br)c(=O)n(C)c(=O)n3C)cc1N | inactive | –
Cc1ccc(NC(=S)N(CCN2CCCCC2)Cc2ccco2)cc1 | inconclusive: 35.5 µM [inhibitor, single point] | –
Clc1ccc(-c2nc(NCCN3CCOCC3)c3ccccc3n2)cc1 | inconclusive: 29.1 µM [inhibitor, single point] | –
CN(C)S(=O)(=O)c1ccc(N2CCCC2)c(C(=O)Nc2ccccc2OC(F)F)c1 | inconclusive: 11.2 µM [inhibitor, partial curve, poor fit] | –
O=C(CCNS(=O)(=O)c1ccc(OC(F)(F)F)cc1)N1CCN(C/C=C/c2ccccc2)CC1 | inconclusive: 35.5 µM [inhibitor, single point] | –
Cn1c(CN2CCOCC2)nc2cc(NC(=O)COc3ccccc3)ccc21 | inactive | –
Cc1ccc(NC(=O)c2ccc(S(=O)(=O)NCC3CCCO3)cc2)cc1 (stereo unspecified) | inactive | –
Nn1c(SCC(=O)Nc2nccs2)nnc1-c1ccccn1 | inactive | –
c1ccc(Cn2c(CN3CCCC3)nc3ccccc32)cc1 | inactive | –
COc1ccc(SCC(=O)c2cc(C)c(OC(=S)N(C)C)c(C)c2)cc1 | inactive | –
Cc1ccc(C(C)C)c(OCC(=O)NCC2(N3CCOCC3)CCCCC2)c1 | inconclusive: 22.4 µM [inhibitor, single point] | –
Cc1ccccc1NC(=S)NCC(c1cccnc1)N(C)C (stereo unspecified) | inconclusive: 2.24 µM [activator, partial curve, poor fit] | –
O=C(COc1ccc(Cl)cc1)N1CCCCCCC1 | inconclusive: 4.47 µM [activator, full curve, poor fit] | –
CCCC(=O)C1=C(N2CCCC2)CC(C)(C)C(C(=O)OC)C1=O (stereo unspecified) | inactive | –
CCc1ccccc1NC(=S)Nc1cc(OC)c(NC(=O)C(C)C)cc1OC | inconclusive: 5.62 µM [inhibitor, single point] | –
CC(=O)N1CCc2c(sc3c2c(=O)n(-c2ccccc2C)c(=O)n3CC(=O)c2ccccc2)C1 | inactive | –
O=C1NC(=Nc2ccccc2)SC1Cc1ccccc1 (stereo unspecified) | inconclusive: 35.5 µM [activator, single point] | –
O=S(=O)(NCCN1CCN(S(=O)(=O)c2ccccc2F)CC1)c1ccccc1F | inconclusive: 3.98 µM [inhibitor, partial curve, poor fit] | –
CCOc1cc(/C=N/Nc2nc(Nc3ccccc3)nc(N3CCCCC3)n2)ccc1OCC(=O)O | inactive | –
CCCC(=O)Nc1ccc(C(=O)N/N=C/c2cccnc2)cc1 | inconclusive: 0.58 µM [activator, single point] | –
O=C1CCCC(=NNC(=O)c2cc3ccccc3cc2O)C1 | inconclusive: 8.91 µM [inhibitor, partial curve, poor fit] | –

Some of the entries so far, in CSV form.
Structure (SMILES),Potency,"activity change, negative = inhibition"
CC(=O)N1CCc2c(sc3c2c(=O)n(-c2ccccc2C)c(=O)n3CC(=O)c2ccccc2)C1,inactive,–
O=C1NC(=Nc2ccccc2)SC1Cc1ccccc1 (stereo unspecified),"inconclusive: 35.5 µM [activator, single point]",–
O=S(=O)(NCCN1CCN(S(=O)(=O)c2ccccc2F)CC1)c1ccccc1F,"inconclusive: 3.98 µM [inhibitor, partial curve, poor fit]",–
CCOc1cc(/C=N/Nc2nc(Nc3ccccc3)nc(N3CCCCC3)n2)ccc1OCC(=O)O,inactive,–
